Source: PubChem BioAssay AID528 (NMMLSC, 2006)
Out of some 24,000 compounds screened, fewer than 10 were called active. The shares of active, inactive and inconclusive entries below differ from those in the screen.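 How the source made its calls: active means fluorescent ligand binding to cells raised by more than 40% of the manganese-induced maximum; inconclusive means compound's own fluorescence above 85% of the ligand control signal; inactive means the rest.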

By UniProt entry, the sequences of proteins in these tests, tags left out.
UniProt P13612, whole entry, looked up: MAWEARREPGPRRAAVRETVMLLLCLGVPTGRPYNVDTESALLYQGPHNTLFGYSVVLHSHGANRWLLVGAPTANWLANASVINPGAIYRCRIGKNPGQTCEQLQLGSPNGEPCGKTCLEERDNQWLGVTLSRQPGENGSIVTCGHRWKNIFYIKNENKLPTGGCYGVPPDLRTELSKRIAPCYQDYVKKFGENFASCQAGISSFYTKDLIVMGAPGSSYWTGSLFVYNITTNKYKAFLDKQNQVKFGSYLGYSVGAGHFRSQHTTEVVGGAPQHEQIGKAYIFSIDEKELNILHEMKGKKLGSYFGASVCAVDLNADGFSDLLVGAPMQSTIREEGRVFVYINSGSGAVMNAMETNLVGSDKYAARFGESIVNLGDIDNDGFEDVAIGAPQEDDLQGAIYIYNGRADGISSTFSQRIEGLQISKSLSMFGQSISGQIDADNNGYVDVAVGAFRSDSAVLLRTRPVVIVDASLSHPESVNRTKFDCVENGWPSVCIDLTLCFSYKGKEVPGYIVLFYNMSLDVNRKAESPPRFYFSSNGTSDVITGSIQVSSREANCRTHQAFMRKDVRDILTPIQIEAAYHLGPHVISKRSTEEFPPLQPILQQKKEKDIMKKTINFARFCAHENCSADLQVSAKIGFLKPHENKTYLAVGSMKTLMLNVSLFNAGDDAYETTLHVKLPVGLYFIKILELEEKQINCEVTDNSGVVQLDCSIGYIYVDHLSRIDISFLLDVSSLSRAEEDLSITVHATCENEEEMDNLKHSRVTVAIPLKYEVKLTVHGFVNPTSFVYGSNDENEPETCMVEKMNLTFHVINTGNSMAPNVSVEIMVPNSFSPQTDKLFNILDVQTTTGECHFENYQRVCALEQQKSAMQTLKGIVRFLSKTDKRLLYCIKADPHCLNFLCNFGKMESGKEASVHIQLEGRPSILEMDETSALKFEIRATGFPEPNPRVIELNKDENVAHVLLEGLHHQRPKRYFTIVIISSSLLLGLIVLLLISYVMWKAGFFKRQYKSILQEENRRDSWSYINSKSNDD

biological target: Integrin alpha-4 (Homo sapiens) (UniProt P13612); experiment: enhancers of LDV-FITC binding to VLA-4 integrin, primary screen, Jurkat cells, flow cytometry (AID 528); details: active compounds read high, screened at 10 µM (by protocol);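 on activation: 0% = ligand binding without compound and 100% = manganese-stimulated maximal binding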

| Structure (SMILES) | activation |
| --- | --- |
| CCc1c(C(=O)NC2CCCCC2)[nH]c(C)c1C(C)=O | inconclusive |
| O=C(NCN1CCN(c2ccccc2F)CC1)c1ccccc1 | inconclusive |
| COc1ccc(N2CCN(C(=O)CCN3C(=O)c4ccccc4S3(=O)=O)CC2)cc1 | inconclusive |
| COc1ccc(NC(=O)Cn2cnc3c(cnn3-c3ccc(C)c(C)c3)c2=O)c(OC)c1 | inconclusive |
| CCSc1nc(O)c(C2OC(=O)c3c2ccc(OC)c3OC)c(=O)n1-c1ccccc1 (stereo not given) | inactive: -7% |
| Cc1nc2c3c(-c4ccccc4)nc(N4CCOCC4)nc3nn2c(C)c1CCC(=O)O | inactive: -1.5% |
| COc1cc2[nH]c(=O)n(CCCC(=O)N3CC=C(c4ccccc4)CC3)c(=O)c2cc1OC | inconclusive |
| COc1ccccc1N1CCN(c2nc(-c3ccccc3)cc(C(F)(F)F)n2)CC1 | inactive: 6% |
| CC(C)(C)n1nnnc1C(c1cccs1)N1CCN(Cc2ccccc2)CC1 (stereo not given) | inactive: 4.5% |
| Cc1cc(Nc2ccc(Br)cc2F)n2ncnc2n1 | inconclusive |
| O=C(c1nnc(Cc2ccc(Cl)cc2)o1)N1CCOCC1 | inconclusive |
| O=C(CCn1c(=S)[nH]c2ccccc2c1=O)N1CCN(c2ccccn2)CC1 | inactive: 3% |
| Nc1cc(OC(=O)c2cccs2)nn1S(=O)(=O)c1ccccc1 | inconclusive |
| COc1ccc(OC)c(NC(=O)CC(Cc2ccccc2OC)C(=O)O)c1 (stereo not given) | inconclusive |
| Cn1c(=O)c2nc(-c3ccccc3)oc2c2ccccc21 | inconclusive |
| c1cnn(-c2cc(N3CCOCC3)ncn2)c1 | inconclusive |
| COc1ccc(Nc2nc(N)nc(CN3CCC(Cc4ccccc4)CC3)n2)cc1 | inactive: 5% |
| O=C(COC(=O)C1CC1)c1c[nH]c2ccccc12 | inactive: -1% |
| COc1ccc(NC(=O)C2CCCN(S(=O)(=O)c3cccc4cccnc34)C2)c(OC)c1 (stereo not given) | inactive: -5% |
| CCOC(=O)N1CCN(C(=O)C2CCCN(S(=O)(=O)c3cccnc3)C2)CC1 (stereo not given) | inactive: -3% |
| Cc1cccc(-n2nnc(C(=O)NCc3ccccc3)c2N)c1 | inactive: 1.3% |
| CCC(=O)NCCc1cc2cc(C)c(C)cc2[nH]c1=O | inconclusive |
| Cc1ccc(/C=c2\sc3nc(-c4ccccc4Br)nn3c2=O)o1 | inconclusive |
| O=C(c1ccc(CS(=O)(=O)c2ccc(Br)cc2)o1)N1CCCC1 | inconclusive |
| COc1ccc(-c2nc(CN3CCC(C(=O)NC4CCCc5ccccc54)CC3)c(C)o2)cc1OC (stereo not given) | inactive: -10% |

Sorted by heavy-atom count (high to low): 3 of the compounds above.

| Structure (SMILES) | activation |
| --- | --- |
| COc1cc2[nH]c(=O)n(CCCC(=O)N3CC=C(c4ccccc4)CC3)c(=O)c2cc1OC | inconclusive |
| Cc1nc2c3c(-c4ccccc4)nc(N4CCOCC4)nc3nn2c(C)c1CCC(=O)O | inactive: -1.5% |
| O=C(COC(=O)C1CC1)c1c[nH]c2ccccc12 | inactive: -1% |

The listing continues:

| Structure (SMILES) | activation |
| --- | --- |
| CCCn1c(C)cc(C(=O)COc2ncnc3sccc23)c1C | inconclusive |
| O=S(=O)(NCC(c1cccnc1)N1CCN(c2ccc(F)cc2)CC1)c1cc(F)ccc1F (stereo not given) | inconclusive |
| COc1ccc(C2C(C(=O)O)c3ccccc3C(=O)N2C)cc1Br (stereo not given) | inconclusive |
| COC(=O)c1cccc(C(=O)Nc2cnc3ccccc3c2)n1 | inconclusive |
| Cc1cccc(NC(=O)C2CCN(S(=O)(=O)c3cccs3)CC2)n1 | inconclusive |
| Oc1ccccc1C1=Nc2nc3ccccc3n2C(c2ccccc2)C1 (stereo not given) | inconclusive |
| COCCN1Cc2cccc(C(=O)NCc3ccc4c(c3)OCO4)c2C1=O | inactive: -2% |
| CCN1C(=O)/C(=C2\SC(N3CCCCC3)=NC2=O)c2ccccc21 | inconclusive |
| Cc1oc(-c2ccccc2F)nc1CN1CCC(C(=O)NC2CC2)CC1 | inconclusive |
| O=C(CCNS(=O)(=O)c1cccc2nonc12)NC1CCCc2ccccc21 (stereo not given) | inconclusive |
| COc1ccc(Cc2nc(-c3cccs3)no2)cc1OC | inconclusive |
| Cc1ccc(Cl)cc1N1CCN(S(=O)(=O)c2ccc3c(c2)oc(=O)n3C)CC1 | inactive: 9% |
| COCCCNC(=O)c1cc2c(-c3ccc(Cl)cc3)nn(C)c2s1 | inconclusive |
| CCn1c(SCC(=O)Nc2cc(C)on2)nc2sc3c(c2c1=O)CCCC3 | inconclusive |
| CCOc1ccccc1C(=O)NC(C)c1ccc2c(c1)OCO2 (stereo not given) | inconclusive |
| O=C(CN1CCCN(S(=O)(=O)c2ccc(Br)cc2)CC1)Nc1ccc2cn[nH]c2c1 | inactive: 0.3% |
| CCC1c2ccc(C)n2CCN1C(=O)Nc1ccccc1C(=O)OC (stereo not given) | inconclusive |
| c1ccc(Cc2nnc3sc(-c4ccc5c(c4)OCCO5)nn23)cc1 | inconclusive |
| COC(=O)C1=[N+]([O-])OC(C(=O)OC)C1c1c[nH]c2ccccc12 (stereo not given) | inactive: 6% |
| Oc1[nH]c2ccccc2c1C=Nc1ccc2c(c1)OCCO2 | inconclusive |
| Cc1ccc(S(=O)(=O)N(C)Cc2nc(-c3ccc(Br)cc3)no2)cc1 | inconclusive |
| CCOC(=O)c1ccc(NC(=O)CSc2nnc(Cn3c(=O)sc4ccccc43)n2C)cc1 | inconclusive |
| O=C(Cn1ncc2c(=O)oc3ccccc3c21)N1CCc2ccccc2C1 | inconclusive |
| FC(F)(F)c1nnc2ccc(-n3ccnc3)nn12 | inactive: -6% |
| CC(NC(=O)CN1C(=O)COc2ccccc21)c1ccccc1 (stereo not given) | inactive: 6% |
